The record followed here is publication PMC10403854.

Protein sequences, listed by entry. Tags and fused reporters are not part of them. Residues count along the entry.
UniProt Q13586, residues 23-685: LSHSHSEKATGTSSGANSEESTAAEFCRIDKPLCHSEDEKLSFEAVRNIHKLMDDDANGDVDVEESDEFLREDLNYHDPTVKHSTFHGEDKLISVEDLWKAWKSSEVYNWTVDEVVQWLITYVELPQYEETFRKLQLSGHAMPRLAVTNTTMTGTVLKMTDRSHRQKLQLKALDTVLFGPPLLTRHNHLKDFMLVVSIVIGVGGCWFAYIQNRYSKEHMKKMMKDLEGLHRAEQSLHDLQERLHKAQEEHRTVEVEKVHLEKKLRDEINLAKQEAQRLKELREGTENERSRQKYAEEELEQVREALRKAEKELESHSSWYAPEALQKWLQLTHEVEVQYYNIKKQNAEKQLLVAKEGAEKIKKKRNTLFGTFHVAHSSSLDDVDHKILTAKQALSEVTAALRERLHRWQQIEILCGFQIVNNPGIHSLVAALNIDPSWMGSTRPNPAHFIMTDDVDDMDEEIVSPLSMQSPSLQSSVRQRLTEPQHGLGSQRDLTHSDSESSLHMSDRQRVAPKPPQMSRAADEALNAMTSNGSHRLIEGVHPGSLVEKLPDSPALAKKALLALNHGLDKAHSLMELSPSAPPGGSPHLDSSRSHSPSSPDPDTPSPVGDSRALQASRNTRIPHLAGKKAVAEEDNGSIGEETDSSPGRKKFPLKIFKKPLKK
UniProt Q13049: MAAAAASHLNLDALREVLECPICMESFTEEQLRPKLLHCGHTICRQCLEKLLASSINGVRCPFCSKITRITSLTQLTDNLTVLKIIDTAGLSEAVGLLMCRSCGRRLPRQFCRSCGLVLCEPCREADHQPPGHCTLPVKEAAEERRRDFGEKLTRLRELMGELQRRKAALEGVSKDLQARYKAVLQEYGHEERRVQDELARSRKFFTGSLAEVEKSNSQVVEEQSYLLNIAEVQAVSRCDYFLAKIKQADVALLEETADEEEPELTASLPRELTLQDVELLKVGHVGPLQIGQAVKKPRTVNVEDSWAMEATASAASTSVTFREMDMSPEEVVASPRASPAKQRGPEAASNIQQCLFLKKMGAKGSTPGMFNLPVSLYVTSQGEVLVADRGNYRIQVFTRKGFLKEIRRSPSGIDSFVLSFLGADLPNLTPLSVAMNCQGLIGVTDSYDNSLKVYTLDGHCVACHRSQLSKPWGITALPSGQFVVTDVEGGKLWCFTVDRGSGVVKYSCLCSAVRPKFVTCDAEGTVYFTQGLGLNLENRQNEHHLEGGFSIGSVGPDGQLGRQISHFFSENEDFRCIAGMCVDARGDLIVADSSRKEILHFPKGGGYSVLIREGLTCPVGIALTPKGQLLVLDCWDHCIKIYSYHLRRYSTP

Where two headings read alike, the source gives them in different places. Results are given in words; binding and its absence hold for the method and conditions named. In cells and extracts the contact can be indirect. These calls come from enrichment with a bait or labelling near it, and not all partners need be listed.

Experiment [1] has as its target stromal interaction molecule 1 (STIM1), endogenous (human (endogenous in DU145 and PC-3)) (UniProt Q13586). The experiment can be described thus: affinity purification with mass spectrometry; STIM1 immunoprecipitated from whole-cell lysate; a ~30 kDa band and the immune complexes analysed by mass spectrometry; cells not given.
Experiment [2] shares this target. Described as above. This is another data set of the same source.

As to “tripartite motif containing 32 (TRIM32), endogenous (from UniProt Q13049 1-653) (enzyme)”, the binding result in experiment [1] is given as “binds”.

B1: tetraspanin 18 (TSPAN18), endogenous (protein, UniProt Q96SJ8 1-248)
chain: MEGDCLSCMKYLMFVFNFFIFLGGACLLAIGIWVMVDPTGFREIVAANPLLLTGAYILLAMGGLLFLLGFLGCCGAVRENKCLLLFFFLFILIIFLAELSAAILAFIFRENLTREFFTKELTKHYQGNNDTDVFSATWNSVMITFGCCGVNGPEDFKFASVFRLLTLDSEEVPEACCRREPQSRDGVLLSREECLLGRSLFLNKQGCYTVILNTFETYVYLAGALAIGVLAIELFAMIFAMCLFRGIQ
Consider B1, for which the binding result in experiment [2] is on record as “binds”.
